We go through three molecules from publication PMC11984905, “Chiral Switch of Gadopiclenol: New Standards in MRI Probes” (Advanced Science, 2025).

This data set can be described thus: 1H NMRD profiles and 17O NMR relaxometry in water. The data set is classed as physicochemical. The note with it: for Δ^2 / τv / ^SSτR: 298 K. On the procedure:
The magnetic‐field dependence of the longitudinal relaxation rate of water protons (^1H NMRD) were measured in aqueous solution by using a variable field relaxometer equipped with an HTS‐110 3T Metrology Cryogen‐free Superconducting Magnet (Mede, Italy), operating in the overall range of proton Larmor frequencies of 20–120 MHz (0.47–3.00 T). The measurements were performed using the standard inversion recovery sequence (20 experiments, 3 scans) with a 90° pulse width of 3.5 µs. The temperature was controlled with a Stelar VTC‐91 heater airflow. Additional points in the 0.01–10 MHz frequency range were collected on a Fast‐Field Cycling (FFC) Stelar SmarTracer Relaxometer. T 1 values at 500 MHz were collected on a Bruker Avance III NMR spectrometer operating at 11.7 T. The concentration of Gd^3+ in the solutions was determined by using bulk magnetic susceptibility (BMS) shift measurements performed at 11.7 T. For the measurements in the biological fluid, lyophilized plasma matrix (Siemens Healthcare) was added to 1 mL of [Gd(ent‐L2)] (1.0 mM) or Seronorm (Sero) was solubilized in 5 mL [Gd(ent‐L2)] (1.0 mM) solution. ^1H NMRD of the final solution was measured at 310 K.
The spectra were acquired on a Bruker Avance III spectrometer (11.7 T) using a 5 mm probe under temperature control. An aqueous solution of the complexes ([GdL] = 10–15 mM) was enriched to ca. 2.0% of the ^17O isotope (Cambridge Isotope). The transverse relaxation rates (R 2) were measured as a function of temperature in the 278−350 K range. The simultaneous fit of ^1H NMRD and ^17O NMR profiles data was performed using the Micromath Scientist software (version 2.0, Salt Lake City, UT, USA).

Turning to `O=C([O-])CCC(C(=O)[O-])N1CCN(C(CCC(=O)[O-])C(=O)[O-])Cc2cccc(n2)CN(C(CCC(=O)[O-])C(=O)[O-])CC1.[Gd+3]` (mixture of isomers) [[Gd(rac‐L1)]^3−] [2,2’,2’’-[3,6,9,15-tetraazabicyclo[9.3.1]pentadeca-1(15),11,13-triene-3,6,9-triyl]tris(4-carboxybutanoate)gadolinium], the AO1/h is reported as -3.5±0.1 10^6 rad s^-1, the AO2/h is listed as -2.5±0.1 10^6 rad s^-1, the ΔHM1 was determined as 27 ± 1 kJ/mol and the ΔHM2 amounted to 14 ± 3 kJ/mol. In addition, the “Δ^2” value was 2.1±0.1 10^19 s^-2 and the τv was 34±2 ps.
As to `O=C([O-])CCC(C(=O)[O-])N1CCN(C(CCC(=O)[O-])C(=O)[O-])Cc2cccc(n2)CN(C(CCC(=O)[O-])C(=O)[O-])CC1.[Gd+3]` (racemic) [[Gd(ent‐L1)]^3−], the AO1/h was -3.8±0.1 10^6 rad s^-1, the AO2/h is listed as -2.7±0.1 10^6 rad s^-1, the ΔHM1 is 31 ± 2 kJ/mol and the ΔHM2 worked out at 19 ± 2 kJ/mol. Further, the “^SSτR” value stood at 68±2 ps, the “Δ^2” value is 1.9±0.1 10^19 s^-2 and the τv is 37±1 ps.
As to `O=C(CCC(C(=O)[O-])N1CCN(C(CCC(=O)NCC(O)CO)C(=O)[O-])Cc2cccc(n2)CN(C(CCC(=O)NCC(O)CO)C(=O)[O-])CC1)NCC(O)CO.[Gd+3]` (stereo not drawn) [[Gd(ent‐L2)]], the AO1/h is recorded as -3.8±0.1 10^6 rad s^-1, the AO2/h is given as -2.5±0.1 10^6 rad s^-1, the ΔHM1 worked out at 31 ± 1 kJ/mol and the ΔHM2 was 23 ± 1 kJ/mol. Moreover, the “^SSτR” value was found to be 82±1 ps, the “Δ^2” value was 2.4±0.1 10^19 s^-2 and the τv is reported as 38±1 ps.
